Experimental data as given in patent US6030942A (The Trustees of the University of Pennsylvania, priority 1998, dated 2000).
HELM strings list residues between dots; [ac] is acetyl, [am] amide, other brackets name non-standard units.

Legend:
[1] = general procedure: Fmoc solid-phase peptide synthesis; 2-chlorotrityl resin; HBTU; conditions: whole synthesis, scale 0.25 mmol
[2] = general procedure: Fmoc solid-phase peptide synthesis; 2-Chlorotrityl resin (1.3 mmol/g, Novabiochem); HBTU

**Q.** Which crude mass [1] does the source give for PEPTIDE1{[ac].F.T.L.D.A.D.F}$$$$V2.0 here?
**A.** 0.40 g

**Q.** With PEPTIDE1{F.T.L.D.A.D.F}$$$$V2.0 as the substance, how does the step yield ([2]; coupling step) read?
**A.** 96.7%

**Q.** With PEPTIDE1{[ac].L.D.A.D.F}$$$$V2.0 as the substance, how does the cyclisation yield ([2]; cyclisation step) read?
**A.** 61.5%
